Read-outs that look alike come from different tables or passages of the source. No constants are given. Whether binding was seen depends on the method and setting. Binding seen in cells or lysates may run through a third protein. Here binding means that the protein was enriched with, or labelled near, the bait; the list need not be complete.
Tests used:
Experiment in all cases: affinity purification with mass spectrometry
[1] = target: Influenza A virus nucleoprotein (NP), strain A/WSN/33 (H1N1) (influenza A virus A/WSN/33 (H1N1)) (UniProt P15682)
[2] = target: T1, NONO (human (endogenous in A549)) (UniProt Q15233)
T1 sequence: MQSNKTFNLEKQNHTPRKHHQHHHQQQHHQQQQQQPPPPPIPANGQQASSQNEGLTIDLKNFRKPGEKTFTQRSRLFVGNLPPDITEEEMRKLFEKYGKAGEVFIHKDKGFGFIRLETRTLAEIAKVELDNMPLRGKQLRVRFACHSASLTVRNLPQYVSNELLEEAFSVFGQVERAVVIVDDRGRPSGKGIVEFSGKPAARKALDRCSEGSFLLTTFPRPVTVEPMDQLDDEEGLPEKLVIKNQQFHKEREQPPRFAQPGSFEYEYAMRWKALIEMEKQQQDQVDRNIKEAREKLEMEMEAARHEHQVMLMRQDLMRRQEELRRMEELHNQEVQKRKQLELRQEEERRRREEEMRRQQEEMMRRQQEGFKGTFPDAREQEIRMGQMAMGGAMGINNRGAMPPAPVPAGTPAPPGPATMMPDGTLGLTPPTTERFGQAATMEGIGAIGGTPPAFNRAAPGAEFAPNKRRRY

Sequences of proteins named here, by UniProt entry; tags and fusion partners are left off.
UniProt P15682: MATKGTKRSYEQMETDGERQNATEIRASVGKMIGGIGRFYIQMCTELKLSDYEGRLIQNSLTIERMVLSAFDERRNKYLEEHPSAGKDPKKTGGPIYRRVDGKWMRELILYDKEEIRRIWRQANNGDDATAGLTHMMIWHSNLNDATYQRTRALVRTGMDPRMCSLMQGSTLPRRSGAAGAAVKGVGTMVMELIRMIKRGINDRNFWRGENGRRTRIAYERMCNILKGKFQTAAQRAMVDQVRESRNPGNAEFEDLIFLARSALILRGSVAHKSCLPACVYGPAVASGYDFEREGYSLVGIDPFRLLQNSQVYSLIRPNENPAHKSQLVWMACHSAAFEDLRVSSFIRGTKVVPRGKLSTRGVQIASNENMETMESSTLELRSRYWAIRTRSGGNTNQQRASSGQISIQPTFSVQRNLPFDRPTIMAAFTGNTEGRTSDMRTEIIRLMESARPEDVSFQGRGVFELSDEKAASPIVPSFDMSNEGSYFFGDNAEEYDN

[3] = target: Influenza A virus nucleoprotein (NP), strain A/WSN/33 (H1N1) (influenza A virus A/WSN/33 (H1N1)) (UniProt P15682); remark: listed apart in the source

hnRNPK (from UniProt P61978 1-463)
binding [1]: binds

Influenza A virus nucleoprotein (NP), strain A/WSN/33 (H1N1) (from UniProt P15682 1-498)
binding [2]: binds

B1: MATR3 (protein, UniProt P43243 1-847)
chain: MSKSFQQSSLSRDSQGHGRDLSAAGIGLLAAATQSLSMPASLGRMNQGTARLASLMNLGMSSSLNQQGAHSALSSASTSSHNLQSIFNIGSRGPLPLSSQHRGDADQASNILASFGLSARDLDELSRYPEDKITPENLPQILLQLKRRRTEEGPTLSYGRDGRSATREPPYRVPRDDWEEKRHFRRDSFDDRGPSLNPVLDYDHGSRSQESGYYDRMDYEDDRLRDGERCRDDSFFGETSHNYHKFDSEYERMGRGPGPLQERSLFEKKRGAPPSSNIEDFHGLLPKGYPHLCSICDLPVHSNKEWSQHINGASHSRRCQLLLEIYPEWNPDNDTGHTMGDPFMLQQSTNPAPGILGPPPPSFHLGGPAVGPRGNLGAGNGNLQGPRHMQKGRVETSRVVHIMDFQRGKNLRYQLLQLVEPFGVISNHLILNKINEAFIEMATTEDAQAAVDYYTTTPALVFGKPVRVHLSQKYKRIKKPEGKPDQKFDQKQELGRVIHLSNLPHSGYSDSAVLKLAEPYGKIKNYILMRMKSQAFIEMETREDAMAMVDHCLKKALWFQGRCVKVDLSEKYKKLVLRIPNRGIDLLKKDKSRKRSYSPDGKESPSDKKSKTDGSQKTESSTEGKEQEEKSGEDGEKDTKDDQTEQEPNMLLESEDELLVDEEEAAALLESGSSVGDETDLANLGDVASDGKKEPSDKAVKKDGSASAAAKKKLKKVDKIEELDQENEAALENGIKNEENTEPGAESSENADDPNKDTSENADGQSDENKDDYTIPDEYRIGPYQPNVPVGIDYVIPKTGFYCKLCSLFYTNEEVAKNTHCSSLPHYQKLKKFLNKLAEERRQKKET
binding [3]: binds
